## Percent effect of library compounds

Amino acid sequences for entries named in this document (tags omitted). Residues count along the entry.
UniProt A4I591, 1-473: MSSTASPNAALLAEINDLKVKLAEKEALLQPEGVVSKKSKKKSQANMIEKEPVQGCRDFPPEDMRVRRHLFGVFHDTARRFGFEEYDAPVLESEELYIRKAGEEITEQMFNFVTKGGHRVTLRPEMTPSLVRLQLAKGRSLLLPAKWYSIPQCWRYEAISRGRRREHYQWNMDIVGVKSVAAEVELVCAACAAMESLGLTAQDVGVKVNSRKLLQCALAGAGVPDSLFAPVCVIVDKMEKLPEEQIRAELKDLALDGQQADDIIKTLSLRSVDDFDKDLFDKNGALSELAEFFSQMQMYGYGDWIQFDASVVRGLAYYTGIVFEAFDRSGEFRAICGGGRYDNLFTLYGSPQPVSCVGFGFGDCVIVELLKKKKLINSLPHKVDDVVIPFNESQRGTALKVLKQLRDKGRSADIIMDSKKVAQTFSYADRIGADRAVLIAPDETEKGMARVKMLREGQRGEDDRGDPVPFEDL
UniProt P9WFT3, whole entry: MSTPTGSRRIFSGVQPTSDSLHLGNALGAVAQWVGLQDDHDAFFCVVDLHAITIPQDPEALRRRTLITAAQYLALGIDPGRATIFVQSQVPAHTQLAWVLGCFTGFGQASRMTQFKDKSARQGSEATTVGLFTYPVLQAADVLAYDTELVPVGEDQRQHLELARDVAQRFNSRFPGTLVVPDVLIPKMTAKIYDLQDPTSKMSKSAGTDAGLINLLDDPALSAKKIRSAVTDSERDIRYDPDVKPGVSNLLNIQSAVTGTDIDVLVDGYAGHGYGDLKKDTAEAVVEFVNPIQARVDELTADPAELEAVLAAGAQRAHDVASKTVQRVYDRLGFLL

Measurements from “University of Dundee, Small-Polar-MMV Screening Library” (2021), ChEMBL document CHEMBL3988442.

Each number is a percent effect as filed.
How 0% and 100% were set is not recorded. Most values in the screen are low, and negative values occur.
Compounds were drawn at random from those tested, without regard to their results.

LiHisRS: 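Histidine-tRNA ligase, Leishmania infantum (UniProt A4I591). Enzyme assay of histidyl-tRNA synthetase; the read-out is not stated. Concentration: 30 µM. Higher reads as stronger inhibition (inferred: compounds with an IC50 in retests scored well above the rest). The assay is labelled LdHisRS but filed under L. infantum. Size under these conditions: about 69,000 compounds, about 410 of them at 50% or above in at least one test.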
MtTrpRS: 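Tryptophan-tRNA ligase, Mycobacterium tuberculosis (UniProt P9WFT3). Enzyme assay of tryptophanyl-tRNA synthetase; the read-out is not stated. Compounds at 10 µM. Direction is not recorded; retested compounds ran higher, which suggests that high means inhibition. About 65,000 compounds were tested under these conditions; 0.098% (about 64) showed 50% or more at least once.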

* CN1CCC(N(C)C(=O)c2cnn(-c3cc(F)ccc3F)c2N)CC1 : LiHisRS: 11.88%
* O=C(NCCO)C1(Cc2ccccc2-c2cccnc2)CCOCC1 : LiHisRS: -68.28%; MtTrpRS: -1.569%
* Cc1noc(C)c1CN(C)C(=O)C1CCCCN1S(C)(=O)=O (centres unmarked) : LiHisRS: 13.33%; MtTrpRS: 0.8738%
* COc1ccc(-n2nc(C(C)=O)c(C(C)=O)c2C)cc1Cl : LiHisRS: 12.09%; MtTrpRS: 2.463%
* O=C(NCc1ccco1)c1nn(C2CCS(=O)(=O)C2)c2c1CCCC2 (centres unmarked) : LiHisRS: 22.86%; MtTrpRS: 2.013%
* Cc1ccnn1CCC(=O)N1CCC(c2cnccn2)CC1 : LiHisRS: 15.79%; MtTrpRS: 4%
* NC(=O)c1csc(N2C[C@@H](CN3CCC(O)CC3)[C@@H](CO)C2)n1 : LiHisRS: 17.65%; MtTrpRS: 1.968%
* Cc1n[nH]c2nc(-c3cc(Br)ccc3O)cc(C(=O)O)c12 : LiHisRS: 10%; MtTrpRS: 1.22%
* Nc1cc(C(=O)N2CCOC(Cc3cccc(C(F)(F)F)c3)C2)ccn1 (centres unmarked) : LiHisRS: -1.754%; MtTrpRS: -5.088%
* O=C(c1cscn1)N1CCC2(CN(Cc3ccncc3)C2)C1 : LiHisRS: 14.52%; MtTrpRS: 4.505%
* COCCn1ccc2c(NC(=O)c3n[nH]c4c3CCC4)cccc21 : LiHisRS: 21.74%; MtTrpRS: -8.039%
* COc1ccc(-n2ncc3c2NC(=O)CSC3CC(C)C)cc1 (centres unmarked) : LiHisRS: 23.68%; MtTrpRS: -0.3502%
* CC(NC(=O)Cn1cc(C(N)=O)c(-c2ccccc2)n1)C1CC1 (centres unmarked) : LiHisRS: 24.66%; MtTrpRS: 2.534%
* O=C(O)CCn1ccc(=O)c2ccccc21 : LiHisRS: 17.5%; MtTrpRS: -0.8136%
* Cn1cnc2c1C(C(=O)N1CCOCC1)N(C(=O)c1ccccc1)CC2 (centres unmarked) : LiHisRS: 18.8%; MtTrpRS: 1.26%
* Cc1cc(C)n(CCC(=O)N2CCC(c3nc(C(C)C)no3)CC2)n1 : LiHisRS: 17.92%; MtTrpRS: -0.7457%
* Cc1cc(C)n(CC2CCCN2C(=O)Cc2cn3ccccc3n2)n1 (centres unmarked) : LiHisRS: 5.128%; MtTrpRS: -4.004%
* O=C(O)c1cc(-c2cncnc2)cc(S(=O)(=O)N2CCCCCC2)c1 : LiHisRS: 12.99%; MtTrpRS: -0.9889%
* CC(=O)NC(Cc1c[nH]c2cc(F)ccc12)C(=O)Nc1nonc1C (centres unmarked) : LiHisRS: -4.225%; MtTrpRS: 7.366%
* Cc1oncc1C(=O)N1C[C@H]2CCCC(N(C)Cc3cccs3)[C@H]2C1 (some centres unmarked) : LiHisRS: 3.448%; MtTrpRS: 0.9709%
* CCc1ncc2c(n1)CN(Cc1cccc(OCC(N)=O)c1)CC2 : LiHisRS: 45.45%; MtTrpRS: 3.837%
* Cc1ccc(C(=O)N2C[C@@H]3CN(c4ncccn4)C[C@@H]3C2)cc1 : LiHisRS: 4%; MtTrpRS: -0.7319%
* Cc1ccsc1CNC(=O)N(C)Cc1cnn(C)c1 : LiHisRS: 1.835%; MtTrpRS: -3.193%
* CCc1[nH]c2ccc(CNc3cncc(C(=O)N(C)C)n3)cc2c1C : LiHisRS: 23.73%; MtTrpRS: 4.022%
* CC(=O)NCCc1ccc(C(=O)N2CCCC2c2cnn(C)c2)cc1 (centres unmarked) : LiHisRS: 16.67%; MtTrpRS: 1.267%
* COc1ccc(-n2ccc(C(=O)NCCN3CCC(C)CC3)n2)cc1 : LiHisRS: 12.17%; MtTrpRS: 3.895%
* CN1CCc2c(C#N)c(NCCc3ccccc3)n3cnnc3c2C1 : LiHisRS: 18.42%; MtTrpRS: 0.7498%
* O=C(CS(=O)(=O)c1ccccn1)NC1CCCc2ccccc21 (centres unmarked) : LiHisRS: 21.92%; MtTrpRS: -3.866%
* CCCn1cc(NC(=O)Nc2ccc(F)c(C(=O)NC)c2)cn1 : LiHisRS: 22.35%; MtTrpRS: -1.06%
* CC(C)(C)c1csc(CNC(=O)C2NCCc3[nH]cnc32)n1 (centres unmarked) : LiHisRS: 7.5%; MtTrpRS: -2.894%
* O=C(NCCC1=CCCCC1)c1n[nH]c2c1CCCC2 : LiHisRS: 15.07%; MtTrpRS: 7.294%
* Cc1c(Cl)c(C(F)(F)F)nn1C(C)C(=O)NN1CCN(C)CC1 (centres unmarked) : LiHisRS: 12.5%; MtTrpRS: 0.3589%
* O=C(Cn1cc(Cl)cn1)Nc1ccc2c(c1)OCCCO2 : LiHisRS: 11.29%; MtTrpRS: -4.408%

For reference, 3 entries once more:

structure	LiHisRS	MtTrpRS
O=C(NCCC1=CCCCC1)c1n[nH]c2c1CCCC2	15.07%	7.294%
CCc1[nH]c2ccc(CNc3cncc(C(=O)N(C)C)n3)cc2c1C	23.73%	4.022%
Cc1c(Cl)c(C(F)(F)F)nn1C(C)C(=O)NN1CCN(C)CC1 (centres unmarked)	12.5%	0.3589%